Results taken from article PMC3948724.

Molecular target: G533A COX-2, catalytically impaired mutant of human COX-2 (human)
Assay: co-IP; COX-2 immunoprecipitated from lysates (RIPA/SDS buffer) of HEK 293 cells transfected with mock, COX-2 or G533A COX-2; blots probed for COX-2 and endogenous EP1; cells treated for 15 min with vehicle (ethanol), arachidonic acid (2.5, 10 or 50 uM) or the EP1 agonist 17E2 (1 uM)

B1: prostaglandin E2 receptor EP1, endogenous in HEK 293 cells (receptor, UniProt P34995 1-402)
chain: MSPCGPLNLSLAGEATTCAAPWVPNTSAVPPSGASPALPIFSMTLGAVSNLLALALLAQAAGRLRRRRSAATFLLFVASLLATDLAGHVIPGALVLRLYTAGRAPAGGACHFLGGCMVFFGLCPLLLGCGMAVERCVGVTRPLLHAARVSVARARLALAAVAAVALAVALLPLARVGRYELQYPGTWCFIGLGPPGGWRQALLAGLFASLGLVALLAALVCNTLSGLALLRARWRRRSRRPPPASGPDSRRRWGAHGPRSASASSASSIASASTFFGGSRSSGSARRARAHDVEMVGQLVGIMVVSCICWSPMLVLVALAVGGWSSTSLQRPLFLAVRLASWNQILDPWVYILLRQAVLRQLLRLLPPRAGAKGGPAGLGLTPSAWEASSLRSSRHSGLSHF
binding: binds

These are yes or no findings as the source states them, for the method shown. In cells and extracts the contact can be indirect. A result given as binding can be weak or reduced; the word gives no strength. Where a sequence is shown, tags or fusion partners need not be part of it.
